# PubChem BioAssay (NCATS)
# The other results are listed elsewhere or left out. These are further read-outs of the screen, such as a control signal, another cell line or another target. No call is given for them. For some assays here: The list favours compounds with an active or inconclusive main result. For some assays here: The note in brackets gives the kind of curve behind each potency; many fits are weak.
# Assays:
# [1] = Validation of Assay for Modulators of Lamin A Splicing (AID 1459); conditions: Lamin A splicing dual RFP/GFP fluorescence reporter, ratio
# Procedure, shortened: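 Splicing correction is reported by an EGFP-containing lamin A minigene in stably transfected S3 HeLa cells, while DsRed2 controls for viability and nonspecific signal. Cells are exposed to compounds for 48 hrs before the GFP over RFP ratio is taken.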
# [2] = qHTS Assay for Lipid Storage Modulators (AID 1519); conditions: Drosophila S3 cells, BODIPY lipid droplet/cell ratio, laser cytometry, cells loaded with oleic acid
# Procedure, shortened: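 Cells seeded at 5,000 per well were treated with compounds over a concentration series and loaded with oleic acid (400 uM, as added). Lipid droplet fluorescence (488 nm excitation, 500-530 nm channel) was read by laser-scanning cytometry and normalized to 20 uM Triacsin C.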
# [3] = qHTS Assay for Modulators of Human Peripheral Myelin Protein 22 (PMP22) Expression/Activity (AID 1967); conditions: Cell-based PMP22 reporter, dual-color luciferase ratio
# Procedure, shortened: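 Quantitative HTS in a mouse Schwann cell line expressing dual click beetle luciferases: Pmp22 promoter (green) and control EF-alpha promoter (red). After 24h treatment, corrected green/red signal ratio gave %Activity relative to untreated cells.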
# [4] = qHTS Validation Assay to Find Inhibitors of Chronic Active B-Cell Receptor Signaling (AID 485345); conditions: ABC-DLBCL cells, chronic BCR signaling reporter
# Procedure, shortened: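 TMD8 ABC-DLBCL cells stably carrying doxycycline-inducible IkappaBalpha–green luciferase fusion plus unfused red luciferase; compounds 46 uM to 3 nM, 4 h at 37C with doxycycline. Corrected green/red luminescence ratio normalized to 10 uM MG-132 and basal cell wells; curves fitted.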
# [5] = qHTS assay for small molecule antagonists of peroxisome proliferator-activated receptor delta signaling (AID 588535); conditions: HEK293T PPARd-UAS-bla, beta-lactamase FRET ratio, 18 h; 460 nm channel;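 further: cells co-treated with a PPAR-delta agonist as stimulator during compound exposure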
# Procedure, shortened: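 Cells were seeded at 4000 per well in assay medium containing 2% charcoal/dextran FBS and held 5 hrs at 37 C. Compounds were then added for 18 hrs. CCF4 substrate was applied for 2 hrs at room temperature before fluorescence reading.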
# [6] = qHTS assay for small molecule agonists of retinoid X receptor alpha signaling (AID 588544); conditions: HEK293T RXRa-UAS-bla, beta-lactamase reporter, 18 h; 530 nm emission
# [7] = qHTS assay for small molecule antagonists of retinoid X receptor alpha signaling (AID 588546); conditions: HEK293T RXRa-UAS-bla, beta-lactamase ratio, antagonist mode; measured here: W530 green channel, cytotoxicity proxy;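 further: cells stimulated with 9-cis-retinoic acid as agonist; on the % scale 0 is the no-effect control and ±100 the full control effect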
# Procedure, shortened: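 Beta-lactamase reporter inhibition, read as CCF4 fluorescence ratio (ex 405, em 460/530 nm) after 2 h at RT. HEK293T UAS-bla cells, 2500/well, were stimulated with 9-cis-RA at 500 or 100 nM final alongside test compound for 18 h at 37 C.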
# [8] = S16 Schwann cell PMP22 intronic element beta-lactamase assay (AID 624044); conditions: S16 rat Schwann cells, PMP22 element beta-lactamase FRET, 24 h; measured here: 460 nm blue channel
# Procedure, shortened: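 Rat S16 Schwann cells with beta-Lac driven by a PMP22 intronic element, compound-treated 24 h at 37 °C. LiveBLAzer FRET B/G read: 460 nm normalized to potassium clavulanate vs DMSO; 535 nm FRET as viability; concentration-effect curves classified.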
# [9] = Nrf2 qHTS screen for inhibitors: Validation (AID 493153); conditions: A549 ARE-Fluc reporter, 18-24 h; AC50: CellTiter-Fluor fluorescence read, measured here: cytotoxicity CellTiter-Fluor AC50; viability change: measured here: cytotoxicity max response
# Procedure, shortened: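 A549 cells carrying an ARE-driven firefly luciferase reporter, in 5% FBS OPTI-MEM, were treated with compounds in concentration-response for 18-24 h at 37°C. Viability was read by CellTiter-Fluor fluorescence, then Nrf2 activity by luciferase luminescence.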
# [10] = qHTS drug screen for cell cycle checkpoint inhibitors in PARPi-resistant BRCA-mutant ovarian cancer cell lines. (AID 1963452); conditions: PEO1/OlaR viability, CellTiter-Glo luminescence, 96 h
# Procedure, shortened: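 PEO1, PEO4 and PEO1/OlaR ovarian cancer cells, 600 per well, exposed 96 h at 37C to a dilution series. Viability read by CellTiter-Glo luminescence, normalized to DMSO and empty wells; activity summarized as Z-AUC.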
# [11] = qHTS for identification of novel therapeutic agents for treatment of microphthalmiaassociated transcription factor (MiT) renal cell carcinoma (RCC) (AID 1963991); conditions: TFE3-RCC viability, CellTiter-Glo, 48 h
# Procedure, shortened: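 Curves over 11 concentrations were fitted to CellTiter-Glo luminescence, scaled between empty wells (0%) and DMSO (100%) viability. Cells were UOK109, UOK124 and UOK145 TFE3-fusion RCC lines at 500/well, exposed 48 hours at 37 C.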
# [12] = measured here: cell count channel max response
# [13] = measured here: lipid channel max response
# [14] = measured here: green reporter channel AC50, mouse Pmp22 promoter in mouse Schwann cells
# [15] = measured here: red reporter channel AC50, EF-alpha promoter control reporter in MSC80 mouse Schwann cells
# [16] = measured here: cell number channel AC50
# [17] = measured here: lipid (BODIPY) channel AC50
# [18] = measured here: CBR control luciferase (viability counter)
smiles,measurement,setting,value
C[C@]12C[C@H](O)C3[C@@H](CCC4=CC(=O)CC[C@@]43C)[C@@H]1CC[C@@H]2C(=O)CO (stereo not given in full),AC50,[1]; measured here: GFP channel,"31.6 µM [rising, single point]"
same,max response,[2]; [12],54.2%
same,max response,[2]; [13],54.6%
CCOC(=O)C1=C(C)NC(C)=C(C(=O)OC)C1c1cccc(Cl)c1Cl (stereo not given),AC50,[1]; measured here: GFP channel,"35.5 µM [falling, single point]"
same,AC50,[1]; measured here: RFP channel,"35.5 µM [falling, single point]"
same,AC50,[3]; [14],"37.9 µM [falling, partial curve]"
same,AC50,[3]; [15],"23.9 µM [falling, full curve]"
CC(C)(C)c1ccc(C(O)CCCN2CCC(C(O)(c3ccccc3)c3ccccc3)CC2)cc1 (stereo not given),AC50,[1]; measured here: GFP channel,"25.1 µM [falling, single point]"
same,AC50,[1]; measured here: RFP channel,"15.8 µM [falling, single point]"
same,AC50,[3]; [15],"84.9 µM [falling, single point]"
N[C@@H](Cc1c[nH]c2ccccc12)C(=O)O,AC50,[1]; measured here: GFP channel,"35.5 µM [rising, single point]"
same,AC50,[1]; measured here: RFP channel,"35.5 µM [rising, single point]"
same,AC50,[3]; [15],"84.9 µM [falling, single point]"
C[C@@H](Oc1ccc(Oc2cnc3ccc(Cl)cc3n2)cc1)C(=O)O,AC50,[1]; measured here: GFP channel,"12.6 µM [falling, single point]"
same,AC50,[1]; measured here: RFP channel,"1.26 µM [rising, partial curve, poor fit]"
same,AC50,[3]; [15],"33.8 µM [falling, partial curve]"
C[C@@H](CN1CCC(Cc2ccccc2)CC1)[C@@H](O)c1ccc(O)cc1,AC50,[1]; measured here: GFP channel,"10 µM [rising, partial curve, poor fit]"
same,max response,[2]; [12],38.5%
same,AC50,[2]; [16],"14.1 µM [rising, partial curve, poor fit]"
same,AC50,[2]; [17],"15.8 µM [rising, partial curve, poor fit]"
same,max response,[2]; [13],42.6%
NC(=O)CNCCC(c1ccccc1)c1ccccc1,AC50,[1]; measured here: GFP channel,"5.01 µM [falling, single point]"
same,AC50,[1]; measured here: RFP channel,"5.01 µM [falling, single point]"
same,AC50,[3]; [15],"95.3 µM [falling, single point]"
O=S(=O)(O)C1CCNCC1,AC50,[1]; measured here: GFP channel,"35.5 µM [rising, single point]"
same,max response,[2]; [12],36.2%
same,AC50,[2]; [16],"39.8 µM [rising, single point]"
same,AC50,[2]; [17],"39.8 µM [rising, single point]"
same,max response,[2]; [13],38.4%
CCCCCCCCCCCCCCCC(=O)OC(CC(=O)O)C[N+](C)(C)C (stereo not given),AC50,[1]; measured here: GFP channel,"35.5 µM [falling, single point]"
same,AC50,[1]; measured here: RFP channel,"22.4 µM [falling, partial curve, poor fit]"
same,AC50,[4]; [18],"9.2 µM [rising, partial curve, poor fit]"
O=C(O)Cc1c[nH]c2ccc(O)cc12,AC50,[1]; measured here: GFP channel,"35.5 µM [falling, single point]"
same,AC50,[1]; measured here: RFP channel,"35.5 µM [falling, single point]"
same,AC50,[3]; [14],"42.6 µM [falling, partial curve]"
same,AC50,[3]; [15],"42.6 µM [falling, partial curve]"
same,AC50,[4]; measured here: CBG/CBR ratio read-out,"16.4 µM [falling, single point]"
same,AC50,[4]; [18],"20.6 µM [falling, single point]"
NC(=O)c1cc[n+](CC2=C(C(=O)O)N3C(=O)[C@@H](NC(=O)[C@@H](c4ccccc4)S(=O)(=O)[O-])[C@H]3SC2)cc1,AC50,[1]; measured here: GFP channel,"12.6 µM [rising, single point]"
same,max response,[2]; [12],49.2%
same,max response,[2]; [13],48.9%
CN1CCN(CC/C=C2/c3ccccc3Sc3ccc(S(=O)(=O)N(C)C)cc32)CC1,AC50,[1]; measured here: GFP channel,"12.6 µM [falling, single point]"
same,max response,[2]; [12],47.9%
same,max response,[2]; [13],52.3%
CO/N=C(\C(=O)N[C@@H]1C(=O)N2C(C(=O)O)=C(COC(C)=O)CS[C@H]12)c1csc(N)n1 (stereo in doubt),AC50,[1]; measured here: GFP channel,"14.1 µM [rising, partial curve, poor fit]"
same,max response,[2]; [12],38.3%
same,max response,[2]; [13],37.6%
Oc1ccc(O)cc1,AC50,[1]; measured here: GFP channel,"35.5 µM [falling, single point]"
same,AC50,[1]; measured here: RFP channel,"11.2 µM [falling, partial curve]"
same,AC50,[3]; [14],"13.5 µM [falling, full curve]"
same,AC50,[3]; [15],"21.3 µM [falling, full curve]"
same,max response,[5],-130%
same,max response,[6],35.7%
same,max response,[7],35.8%
same,AC50,[8],"17.8 µM [falling, partial curve]"
CC(=O)O[C@H]1C(=O)[C@@]2(C)C([C@H](OC(=O)c3ccccc3)[C@]3(O)C[C@H](OC(=O)[C@H](O)[C@@H](NC(=O)c4ccccc4)c4ccccc4)C(C)=C1C3(C)C)[C@]1(OC(C)=O)CO[C@@H]1C[C@@H]2O (stereo not given in full),AC50,[1]; measured here: GFP channel,"3.98 µM [falling, full curve, poor fit]"
same,AC50,[1]; measured here: RFP channel,"0.0355 µM [falling, full curve]"
same,AC50,[3]; [14],"0.0675 µM [falling, full curve, poor fit]"
same,AC50,[3]; [15],"0.0478 µM [falling, full curve]"
same,AC50,[9],"2.31 µM [falling, partial curve]"
same,viability change,[9],-35.4%
same,AC50,[10]; measured here: PEO1 parental viability,"7.8 nM [falling, full curve]"
same,AC50,[10]; measured here: PEO4 viability,"8.7 nM [falling, full curve]"
same,AC50,[11]; measured here: UOK124 cell viability,"8.33 nM [falling, full curve]"
same,AC50,[11]; measured here: UOK145 cell viability,"18.7 nM [falling, full curve]"

# As a short view, part of the list above:
smiles,measurement,setting,value
CN1CCN(CC/C=C2/c3ccccc3Sc3ccc(S(=O)(=O)N(C)C)cc32)CC1,max response,[2]; [12],47.9%
same,max response,[2]; [13],52.3%
CO/N=C(\C(=O)N[C@@H]1C(=O)N2C(C(=O)O)=C(COC(C)=O)CS[C@H]12)c1csc(N)n1 (stereo in doubt),AC50,[1]; measured here: GFP channel,"14.1 µM [rising, partial curve, poor fit]"
same,max response,[2]; [12],38.3%
same,max response,[2]; [13],37.6%
Oc1ccc(O)cc1,AC50,[1]; measured here: GFP channel,"35.5 µM [falling, single point]"
same,AC50,[1]; measured here: RFP channel,"11.2 µM [falling, partial curve]"
same,AC50,[3]; [14],"13.5 µM [falling, full curve]"
same,AC50,[3]; [15],"21.3 µM [falling, full curve]"
same,max response,[5],-130%
same,max response,[6],35.7%
same,max response,[7],35.8%
same,AC50,[8],"17.8 µM [falling, partial curve]"
CC(=O)O[C@H]1C(=O)[C@@]2(C)C([C@H](OC(=O)c3ccccc3)[C@]3(O)C[C@H](OC(=O)[C@H](O)[C@@H](NC(=O)c4ccccc4)c4ccccc4)C(C)=C1C3(C)C)[C@]1(OC(C)=O)CO[C@@H]1C[C@@H]2O (stereo not given in full),AC50,[1]; measured here: GFP channel,"3.98 µM [falling, full curve, poor fit]"
same,AC50,[1]; measured here: RFP channel,"0.0355 µM [falling, full curve]"
